Assay results taken from PMC7656253.
Results are given in words; binding and its absence hold for the method and conditions named. Some binding calls cover weakened binding; strength is not graded here.

The chains behind the UniProt entries cited, without tags or fusion partners.
UniProt P52480: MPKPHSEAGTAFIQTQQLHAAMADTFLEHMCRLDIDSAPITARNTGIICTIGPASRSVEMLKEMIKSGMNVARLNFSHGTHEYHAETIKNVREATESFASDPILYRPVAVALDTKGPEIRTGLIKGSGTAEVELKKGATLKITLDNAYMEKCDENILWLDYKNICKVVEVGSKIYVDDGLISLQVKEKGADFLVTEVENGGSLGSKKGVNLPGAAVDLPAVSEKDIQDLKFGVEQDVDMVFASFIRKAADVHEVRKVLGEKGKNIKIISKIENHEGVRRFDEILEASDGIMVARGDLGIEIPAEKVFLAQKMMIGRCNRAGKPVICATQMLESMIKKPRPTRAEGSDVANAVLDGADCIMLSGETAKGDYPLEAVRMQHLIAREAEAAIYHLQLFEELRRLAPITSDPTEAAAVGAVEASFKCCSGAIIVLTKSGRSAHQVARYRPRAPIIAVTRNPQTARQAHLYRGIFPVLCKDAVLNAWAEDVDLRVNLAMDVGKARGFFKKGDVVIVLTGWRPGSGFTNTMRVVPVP

Legend:
[1] = biological target: Valosin-containing protein (VCP), endogenous in mouse cortical neurons (mouse (endogenous in cultured cortical neurons)) (UniProt Q01853); assay: DARTS (drug affinity responsive target stability); plasma membrane fraction lysate of cortical neurons incubated with recombinant PKM2 or vehicle for 30 min at room temperature; thermolysin 60 min at 37 °C; Western blot for VCP; only the binder purified
[2] = biological target: Valosin-containing protein (VCP), endogenous in mouse cortical neurons (mouse (endogenous in cultured cortical neurons)) (UniProt Q01853); assay: DARTS (drug affinity responsive target stability); whole-cell lysate of cortical neurons (2 μg protein) incubated with 50 and 500 ng/ml recombinant PKM2 for 30 min at 24 °C; thermolysin 30 min at 37 °C; SDS-PAGE, silver stain; band identified by nanoLC-MS/MS; only the binder purified

binding [1]: binds
binding [2]: binds
Substance: Recombinant mouse pyruvate kinase isoform M2 (PKM2) (from UniProt P52480 1-531) (enzyme)
